Results reported in US20230332232A1, “COMPOSITIONS AND METHODS FOR DIAGNOSING AND TREATING A DYSTONIA” (Duke University, priority 2020, published 2023).
At least one structure is not confirmed: it was looked up by name or label, or the drawing left a doubt.

System: wild-type (WT) murine embryonic fibroblasts (MEFs)
Test: microRNA-seq of EVs from WT MEFs treated with drug, compared with non-treated WT MEFs
Format: cell-based, mouse
Settings: ISRIB-treated vs non-treated WT MEF EVs
Description: In addition to proteomic analysis, total RNA-seq and microRNA-seq was performed on RNA isolated in parallel from the EV samples of Cohort 2. As with the proteomic analysis, one biological replicate was prepared from 3 distinct biological clonal cell lines for each genotype. Here, EVs were isolated from conditioned cell culture media by 18 hour ultracentrifugation at 100,000 g. RNA was extracted using the Qiagen miRNeasy Micro Kit (Cat. No. 217084) according to the manufacturer's protocol. Two RNA fractions were extracted from each sample, one enriched in coding and non-coding RNA species>200 nt (“Total RNA” fraction) and one enriched for small RNAs<200 nt (“miRNA” fraction).
RNA samples were then submitted to the Duke Sequencing and Genomic Technologies shared resource for further quality control and sequencing. Samples were assessed for concentration and integrity by Qubit and Fragment Analyzer. The miRNA fractions were 4.16 ng/μL-47.57 ng/μL and total RNA fractions were 3.8 ng/μL-43.6 ng/μL. The small RNA library was prepared using the QIAseq miRNA Library Kit (Cat No./ID: 331505) and sequenced on the Illumina NextSeq 500 High-Output platform with 75 bp single-reads. The total RNA library was prepared using the Illumina TruSeq Stranded Total RNA-seq Kit with Ribozero Gold ribosomal RNA reduction and sequenced on the Illumina NovaSeq 6000 S1 platform with 100 bp paired-end reads. Sequencer lane pooling and read depth are attached in the Excel data summary (See “RNA QC” Tab).
Data processing and analysis were performed in collaboration with the Duke Genomic Analysis and Bioinformatics shared resource. RNA-seq data was processed using the TrimGalore toolkit (http://www.bioinformatics.babraham.ac.uk/projects/trim_galore), which employs Cutadapt(Martin M. (2011) EMBnet.journal. 17(1):10-12) to trim low quality bases and Illumina sequencing adapters from the 3′ end of the reads. Only reads that were 20 nt or longer after trimming were kept for further analysis. Reads were mapped to the mouse genome and transcriptome (Kersey P J, et al. (2012) Nucleic Acids Res. 40(Database issue):D91-97) using the STAR RNA-seq alignment tool (Dobin A, et al. (2013). Bioinformatics. 29(1):15-21). If the reads mapped to a single genomic location, then they were kept for subsequent analysis. Gene counts were compiled using the HTSeq tool (http://www-huber.embl.de/users/anders/HTSeq/). Only genes that had at least 10 reads in any given library were used in subsequent analysis. Normalization and differential expression was carried out using the DESeq26 Bioconductor (Huber W, et al. (2015) Nat Methods. 12(2):115-121) package with the R statistical programming environment (www.r-project.org). The false discovery rate was calculated to control for multiple hypothesis testing and p-values were adjusted to an FDR of 5%.
694 miRNAs were initially examined with respect to QC, genotype, RTV effects, and ISRIB effects. This subset was the “Full miRNA” subset. FIG. 9A and FIG. 9B show the RTV effect on EV composition in DYT1 cells compared to WT cells for 279 miRNAs, respectively.

O=C(COc1ccc(Cl)cc1)NC1CCC(NC(=O)COc2ccc(Cl)cc2)CC1 (stereo not drawn) [ISRIB]
NO: mmu-miR-181a-1-3p: ISRIB Direction Same as dE? | mmu-miR-331-5p: ISRIB Direction Same as dE? | mmu-miR-668-3p: ISRIB Direction Same as dE? | mmu-miR-1943-5p: ISRIB Direction Same as dE? | mmu-miR-1955-5p: ISRIB Direction Same as dE? | mmu-miR-3072-5p: ISRIB Direction Same as dE? | mmu-miR-3076-3p: ISRIB Direction Same as dE? | mmu-miR-3088-3p: ISRIB Direction Same as dE? | mmu-miR-6936-3p: ISRIB Direction Same as dE?
